No constants are given. Whether binding was seen depends on the method and setting. For part of these data: In cells and extracts the contact can be indirect. Some results given as binding are weak or reduced against the parent protein; the word gives no strength.
Experiments:
[1] = molecular target: WASP^ΔI30-His (WASP with the I30 region, a.a. 158-187, deleted, His-tagged) (human) (UniProt P42768); assay: pull-down; His-tag pull-down from HEK293T cells transfected with WIP together with vector, WASP-His or WASP^ΔI30-His; probed for the presence of WIP
[2] = molecular target: WASP-His (Wiskott-Aldrich Syndrome protein, His-tagged) (human) (UniProt P42768); assay: as above
WASP_(138-320) (human) = WASP_(138-320) (human) (UniProt P42768); assay: two-hybrid; yeast two-hybrid analysis of WASP_(138-320) or WASP_(138-320)^ΔI30 with known WASP PRR binding proteins; data not shown

Amino acid sequences for entries named in this document (tags omitted). A change or cut given only in a name is not applied to a line headed by its entry. Chains listed by the source or under a name are the forms on record and can include a tag or linker. Residues count along the entry.
UniProt P42768: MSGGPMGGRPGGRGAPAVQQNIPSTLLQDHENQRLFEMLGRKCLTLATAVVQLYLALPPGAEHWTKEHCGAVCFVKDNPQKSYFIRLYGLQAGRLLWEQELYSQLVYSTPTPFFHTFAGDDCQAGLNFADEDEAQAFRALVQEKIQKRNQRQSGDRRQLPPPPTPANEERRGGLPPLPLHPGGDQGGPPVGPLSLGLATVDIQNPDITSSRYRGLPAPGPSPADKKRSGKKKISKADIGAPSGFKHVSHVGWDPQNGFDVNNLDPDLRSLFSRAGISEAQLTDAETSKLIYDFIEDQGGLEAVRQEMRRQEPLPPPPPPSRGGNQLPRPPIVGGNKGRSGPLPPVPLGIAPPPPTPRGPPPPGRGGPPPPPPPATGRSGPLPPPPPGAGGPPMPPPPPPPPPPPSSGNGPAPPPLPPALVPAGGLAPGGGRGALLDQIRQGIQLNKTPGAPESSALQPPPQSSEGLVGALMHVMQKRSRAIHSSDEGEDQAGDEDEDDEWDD
WASP_(138-320): residues 138-320 of P42768
WASP^ΔI30-His (WASP with the I30 region, a.a. 158-187, deleted, His-tagged) (P42768, form named): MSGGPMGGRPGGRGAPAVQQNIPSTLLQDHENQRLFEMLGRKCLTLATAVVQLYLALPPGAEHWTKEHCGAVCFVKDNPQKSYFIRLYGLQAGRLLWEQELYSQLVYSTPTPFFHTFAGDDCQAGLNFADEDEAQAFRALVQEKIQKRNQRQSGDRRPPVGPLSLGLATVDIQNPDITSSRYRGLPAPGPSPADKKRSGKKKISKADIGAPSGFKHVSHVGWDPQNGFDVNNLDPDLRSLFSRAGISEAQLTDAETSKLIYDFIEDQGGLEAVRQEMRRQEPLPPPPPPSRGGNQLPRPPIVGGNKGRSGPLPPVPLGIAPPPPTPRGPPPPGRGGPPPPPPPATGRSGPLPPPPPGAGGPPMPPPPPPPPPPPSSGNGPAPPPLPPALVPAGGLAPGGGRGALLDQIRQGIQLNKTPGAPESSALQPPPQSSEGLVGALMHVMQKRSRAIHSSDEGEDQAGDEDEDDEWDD
UniProt O43516: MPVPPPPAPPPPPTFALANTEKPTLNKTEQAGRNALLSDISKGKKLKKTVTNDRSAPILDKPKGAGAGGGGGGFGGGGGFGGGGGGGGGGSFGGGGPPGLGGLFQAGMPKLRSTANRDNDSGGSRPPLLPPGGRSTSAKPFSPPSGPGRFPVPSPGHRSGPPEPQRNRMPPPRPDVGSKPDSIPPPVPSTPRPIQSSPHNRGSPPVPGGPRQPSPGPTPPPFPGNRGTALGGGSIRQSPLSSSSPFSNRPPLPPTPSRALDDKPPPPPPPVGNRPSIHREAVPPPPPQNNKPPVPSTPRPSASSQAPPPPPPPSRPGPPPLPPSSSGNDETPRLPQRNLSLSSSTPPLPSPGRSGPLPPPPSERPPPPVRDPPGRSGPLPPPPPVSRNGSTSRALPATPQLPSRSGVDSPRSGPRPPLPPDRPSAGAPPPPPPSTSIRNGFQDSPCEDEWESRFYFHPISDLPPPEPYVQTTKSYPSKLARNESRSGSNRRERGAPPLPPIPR
UniProt P06241: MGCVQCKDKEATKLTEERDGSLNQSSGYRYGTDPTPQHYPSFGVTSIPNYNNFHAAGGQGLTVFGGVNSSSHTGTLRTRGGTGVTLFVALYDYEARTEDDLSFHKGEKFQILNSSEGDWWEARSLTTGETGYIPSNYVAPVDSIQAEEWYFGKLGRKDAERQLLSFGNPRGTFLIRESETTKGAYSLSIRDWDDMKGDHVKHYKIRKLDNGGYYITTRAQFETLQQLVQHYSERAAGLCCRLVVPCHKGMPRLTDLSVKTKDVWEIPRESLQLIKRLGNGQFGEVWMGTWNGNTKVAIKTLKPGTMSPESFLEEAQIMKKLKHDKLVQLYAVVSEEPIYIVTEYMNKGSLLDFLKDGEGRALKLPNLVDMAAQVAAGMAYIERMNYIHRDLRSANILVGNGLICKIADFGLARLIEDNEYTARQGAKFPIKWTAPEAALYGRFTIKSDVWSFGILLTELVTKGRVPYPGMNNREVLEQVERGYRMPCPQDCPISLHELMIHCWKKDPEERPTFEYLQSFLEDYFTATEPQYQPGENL
UniProt P62993: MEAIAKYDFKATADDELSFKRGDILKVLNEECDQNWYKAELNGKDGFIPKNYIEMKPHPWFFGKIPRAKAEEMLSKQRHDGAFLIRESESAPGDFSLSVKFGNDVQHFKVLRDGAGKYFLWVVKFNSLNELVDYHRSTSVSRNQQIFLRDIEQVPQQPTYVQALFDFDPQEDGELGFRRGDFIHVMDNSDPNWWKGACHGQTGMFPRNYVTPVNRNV

Molecule	binding [1]	binding [2]	binding (WASP_(138-320) (human))
WIP (from UniProt O43516 1-503)	binds	binds	
Fyn (from UniProt P06241 1-537)			binds
Fgr (from UniProt P09769 1-529)			binds

More lines, now with the values ahead:

binding [1]	binding [2]	binding (WASP_(138-320) (human))	Molecule
		binds	Grb2 (from UniProt P62993 1-217)
		binds	Toca1 (protein, UniProt Q5T0N5 1-605) MSWGTELWDQFDSLDKHTQWGIDFLERYAKFVKERIEIEQNYAKQLRNLVKKYCPKRSSKDEEPRFTSCVAFFNILNELNDYAGQREVVAEEMAHRVYGELMRYAHDLKTERKMHLQEGRKAQQYLDMCWKQMDNSKKKFERECREAEKAQQSYERLDNDTNATKADVEKAKQQLNLRTHMADENKNEYAAQLQNFNGEQHKHFYVVIPQIYKQLQEMDERRTIKLSECYRGFADSERKVIPIISKCLEGMILAAKSVDERRDSQMVVDSFKSGFEPPGDFPFEDYSQHIYRTISDGTISASKQESGKMDAKTTVGKAKGKLWLFGKKPKPQSPPLTPTSLFTSSTPNGSQFLTFSIEPVHYCMNEIKTGKPRIPSFRSLKRGWSVKMGPALEDFSHLPPEQRRKKLQQRIDELNRELQKESDQKDALNKMKDVYEKNPQMGDPGSLQPKLAETMNNIDRLRMEIHKNEAWLSEVEGKTGGRGDRRHSSDINHLVTQGRESPEGSYTDDANQEVRGPPQQHGHHNEFDDEFEDDDPLPAIGHCKAIYPFDGHNEGTLAMKEGEVLYIIEEDKGDGWTRARRQNGEEGYVPTSYIDVTLEKNSKGS
